Paper PMC10917307

Sequences of proteins named here, by UniProt entry; tags and fusion partners are left off. A change or cut given only in a name is not applied to a line headed by its entry.
UniProt P61958: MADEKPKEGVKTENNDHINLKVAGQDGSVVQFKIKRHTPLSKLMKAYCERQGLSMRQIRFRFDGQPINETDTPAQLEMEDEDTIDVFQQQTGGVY
UniProt I3LUP6: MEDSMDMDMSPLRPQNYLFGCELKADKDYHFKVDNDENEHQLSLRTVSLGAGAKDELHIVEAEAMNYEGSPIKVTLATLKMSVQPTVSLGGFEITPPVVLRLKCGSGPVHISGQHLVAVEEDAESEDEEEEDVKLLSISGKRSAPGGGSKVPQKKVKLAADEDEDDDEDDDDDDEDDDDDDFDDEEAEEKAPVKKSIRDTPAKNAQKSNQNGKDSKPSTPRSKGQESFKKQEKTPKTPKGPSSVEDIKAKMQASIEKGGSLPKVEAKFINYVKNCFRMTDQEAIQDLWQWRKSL

Biological target: GFP-fused porcine SUMO2 (porcine) (UniProt P61958)
Assay: co-IP; Flag-tagged pNPM1 and GFP-fused SUMO1, SUMO2 or SUMO3 transfected into PK-15^npm1-/- cells, then mock or 1 MOI PCV2 for 12 h

Flag-tagged wild-type porcine nucleophosmin-1 (pNPM1) (from UniProt I3LUP6)
binding: binds

Results are given in words; binding and its absence hold for the method and conditions named. Binding seen in cells or lysates may run through a third protein. A result given as binding can be weak or reduced; the word gives no strength.
